This note sets out measurements from patent US20240010694A1, “HYDROGELS CONTAINING AFFIBODIES AND USES THEREOF” (University of Oregon, priority 2022, published 2024).

Protein sequences, listed by entry. Tags and fused reporters are not part of them. Lines headed by an entry give the natural chain unless they say otherwise; changes in a name come on top. Chains listed by the source or under a name are the forms on record and can include a tag or linker. Residues count along the entry.
UniProt P04141, residues 18-144: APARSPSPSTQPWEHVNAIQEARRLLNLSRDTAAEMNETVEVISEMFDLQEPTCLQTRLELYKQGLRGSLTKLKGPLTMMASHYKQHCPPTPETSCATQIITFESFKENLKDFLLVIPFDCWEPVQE
UniProt P01127, residues 82-190: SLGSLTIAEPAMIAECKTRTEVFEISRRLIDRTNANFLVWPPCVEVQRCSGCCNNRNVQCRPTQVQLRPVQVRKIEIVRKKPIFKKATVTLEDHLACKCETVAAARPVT
vascular endothelial growth factor (VEGF) (P15692, form named): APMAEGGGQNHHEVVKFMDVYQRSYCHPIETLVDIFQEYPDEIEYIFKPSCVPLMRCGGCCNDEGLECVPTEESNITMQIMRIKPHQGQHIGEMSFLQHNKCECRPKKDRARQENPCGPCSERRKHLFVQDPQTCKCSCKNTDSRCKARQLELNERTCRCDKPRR
UniProt P09038, residues 143-288: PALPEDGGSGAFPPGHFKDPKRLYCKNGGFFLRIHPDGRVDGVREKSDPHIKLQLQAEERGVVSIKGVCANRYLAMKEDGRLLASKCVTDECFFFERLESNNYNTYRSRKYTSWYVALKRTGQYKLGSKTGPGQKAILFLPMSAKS
UniProt P05112, residues 25-153: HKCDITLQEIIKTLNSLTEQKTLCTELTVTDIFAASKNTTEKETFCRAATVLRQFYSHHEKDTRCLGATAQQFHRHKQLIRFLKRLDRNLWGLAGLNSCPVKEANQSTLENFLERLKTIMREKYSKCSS

These are yes or no findings as the source states them, for the method shown. Some binding calls cover weakened binding; strength is not graded here.

T1: glial derived neurotrophic factor (GDNF) (UniProt P39905)
T1 sequence (looked up): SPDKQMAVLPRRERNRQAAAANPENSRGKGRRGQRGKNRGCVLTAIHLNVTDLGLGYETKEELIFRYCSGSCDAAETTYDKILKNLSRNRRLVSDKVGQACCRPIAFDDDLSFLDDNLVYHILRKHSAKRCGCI

B1: GM-CSF affibody GM3-C2 (designed binder)
chain: AEAKYNKEWYNAISVIFYLPNLTGFQRAAFVDALGDDPSQSSELLSEAKKLNDSQAPK
B2: GDNF affibody A3 (designed binder)
chain: AEAKYAKEWTTANYSIGVLPNLTLTQRYAFETALFDDPSQSSELLSEAKKLNDSQAPK
B3: GDNF affibody B4 (designed binder)
chain: AEAKYTKERHDATLVIHVLPNLTDARILAFIVALSNDPSQSSELLSEAKKLNDSQAPK
B4: GDNF affibody B7 (designed binder)
chain: AEAKYSKEWYDAYLVIFVLPNLTQFQRPAFPPALKNDPSQSSELLSEAKKLNDSQAPK
B5: GDNF affibody A1 (designed binder)
chain: AEAKYNKEQVYASDSIQVLPNLTATQRVAFDPALHNDPSQSSELLSEAKKLNDSQAPK
B6: GDNF affibody A2 (designed binder)
chain: AEAKYNKEKPNAVGEISVLPNLTEFQMVAFIFALVNDPSQSSELLSEAKKLNDSQAPK
B7: PDGF affibody BR6 (designed binder)
chain: AEAKYYKEWDSASDSIGFLPNLTRAQMVAFFAALFNDPSQSSELLSEAKKLNDSQAPK
B8: VEGF affibody L3 (designed binder)
chain: AEAKYYKERYAANYSIWVLPNLTLLQRFAFFFALSNDPSQSSELLSEAKKLNDSQAPK
B9: VEGF affibody BR3 (designed binder)
chain: AEAKYTKERDDASLEIAYLPNLTPYQLMAFFFALSNDPSQSSELLSEAKKLNDSQAPK
B10: VEGF affibody L7 (designed binder)
chain: AEAKYAKELEAANMVIVDLPNLTHGQKVAFLVALFNDPSQSSELLSEAKKLNDSQAPK
B11: VEGF affibody BM2 (designed binder)
chain: AEAKYAKEWFYAYHVIYDLPNLTGFQKHAFYLALYDDPSQSSELLSEAKKLNDSQAPK
B12: VEGF affibody L8 (designed binder)
chain: AEAKYNKEWYDAILEIGFLPNLTGHQRDAFSDALVDDPSQSSELLSEAKKLNDSQAPK
B13: VEGF affibody BR7 (designed binder)
chain: AEAKYAKELLNAFDEIYGLPNLTVGQRMAFCDALINDPSQSSELLSEAKKLNDSQAPK
B14: VEGF affibody BR6 (designed binder)
chain: AEAKYAKEWEDAINEIWCLPNLTEYQRIAFVSALYNDPSQSSELLSEAKKLNDSQAPK
B15: VEGF affibody L4 (designed binder)
chain: AEAKYAKELDDAFFEIASLPNLTGFQLHAFAVALGNDPSQSSELLSEAKKLNDSQAPK
B16: VEGF affibody L5 (designed binder)
chain: AEAKYNKERDSAYSVIWGLPNLTDSQKAAFGYALYNDPSQSSELLSEAKKLNDSQAPK
B17: VEGF affibody TM7 (designed binder)
chain: AEAKYTKEVDYAACVIAYLPNLTGVQVYAFYRALADDPSQSSELLSEAKKLNDSQAPK
B18: VEGF affibody L1 (designed binder)
chain: AEAKYYKEWNAAYVVINGLPNLTRRQREAFVHALVDDPSQSSELLSEAKKLNDSQAPK
B19: VEGF affibody TM4 (designed binder)
chain: AEAKYYKEWYDAFVVIDALPNLTAYQREAFIFALVNDPSQSSELLSEAKKLNDSQAPK
B20: VEGF affibody BM7 (designed binder)
chain: AEAKYAKEGATAFGSIPYLPNLTDVQRYAFIVALLDDPSQSSELLSEAKKLNDSQAPK
B21: VEGF affibody BR1 (designed binder)
chain: AEAKYTKEWYAAVVQIGYLPNLTAFQRAAFSFALSNDPSQSSELLSEAKKLNDSQAPK
B22: VEGF affibody TM6 (designed binder)
chain: AEAKYYKEWVDAYLVIDSLPNLTRLQVEAFVFALVNDPSQSSELLSEAKKLNDSQAPK
B23: FGF-2 affibody FG4-C1 (designed binder)
chain: AEAKYSKEVYSAYDVIFALPNLTQYQVLAFFDALCDDPSQSSELLSEAKKLNDSQAPK
B24: FGF-2 affibody FG3-C3 (designed binder)
chain: AEAKYAKELDAAYVVIYFLPNLTHCQMVAFLHALSDDPSQSSELLSEAKKLNDSQAPK
B25: FGF-2 affibody FG4-C3 (designed binder)
chain: AEAKYAKEGFNAVNVIWPLPNLTADQVCAFICALADDPSQSSELLSEAKKLNDSQAPK
B26: FGF-2 affibody FG2-C3 (designed binder)
chain: AEAKYAKEWLDAIDVIGYLPNLTDFQRGAFYDALNDDPSQSSELLSEAKKLNDSQAPK
B27: FGF-2 affibody FG1_C2 (designed binder)
chain: AEAKYNKEMPDANCQIAFLPNLTQYQVPAFIYALCNDPSQSSELLSEAKKLNDSQAPK
B28: FGF-2 affibody FG4-C4 (designed binder)
chain: AEAKYAKEGCTAFLEIAALPNLTGYQRDAFIEALFDDPSQSSELLSEAKKLNDSQAPK
B29: FGF-2 affibody FG1_C4 (designed binder)
chain: AEAKYSKEGFYADWVIPVLPNLTRKQRVAFHDALHNDPSQSSELLSEAKKLNDSQAPK
B30: FGF-2 affibody FG1_C3 (designed binder)
chain: AEAKYNKEGEDATTQIGSLPNLTQAQKHAFAVALGNDPSQSSELLSEAKKLNDSQAPK
B31: FGF-2 affibody FG4-C2 (designed binder)
chain: AEAKYAKERLTAVCSIVALPNLTEGQMVAFDDALHDDPSQSSELLSEAKKLNDSQAPK
B32: FGF-2 affibody FG1_C1 (designed binder)
chain: AEAKYTKEGCDAYTEIVDLPNLTGYQRRAFYWALENDPSQSSELLSEAKKLNDSQAPK
B33: FGF-2 affibody FG3_C2 (designed binder)
chain: AEAKYYKEGYNAIVEIRCLPNLTDCQVAAFIDALDDDPSQSSELLSEAKKLNDSQAPK
B34: IL-4 affibody G3H-C10 (designed binder)
chain: AEAKYSKEQSNAYASITDLPNLTRLQKLAFWVALFNDPSQSSELLSEAKKLNDSQAPK
B35: IL-4 affibody AD_189 (designed binder)
chain: AERKYHWELLVAFMEIQSLPNLTKDQITQFMAALEDDPSQSSELLSEAKKLNDSQAPK

For one assay, the target named is granulocyte-macrophage colony-stimulating factor (GM-CSF) (UniProt P04141). Briefly: yeast surface display selection (MACS, FACS) and flow cytometry.
Take B1: the binding entry is recorded as “binds”.

A further assay has as its target T1, glial derived neurotrophic factor (GDNF). Description: yeast surface display selection (MACS, FACS) against GDNF.
On to B2, for which the binding entry is given as “binds”.

On to B3, for which the binding result was “binds”.

In the case of B4, the binding result is given as “binds”.

Consider B5, for which the binding entry is reported as “binds”.

On to B6, for which the binding entry is “binds”.

For a further assay, the target named is platelet-derived growth factor (PDGF) (UniProt P01127). Description: yeast surface display selection (MACS, FACS); clones that exhibited binding to the target were sequenced.
For B7, the binding entry is “binds”.

For another assay, the target named is vascular endothelial growth factor (VEGF) (UniProt P15692). The description is as above.
Take B8: the binding result was “binds”.

In the case of B9, the binding entry is listed as “binds”.

B10: the binding result was “binds”.

Regarding B11, the binding result is listed as “binds”.

Consider B12, for which the binding entry was “binds”.

Take B13: the binding entry is “binds”.

As to B14, the binding result was “binds”.

For the molecule B15, the binding result is reported as “binds”.

Turning to B16, the binding result was “binds”.

B17: the binding result was “binds”.

On to B18, for which the binding entry was “binds”.

Consider B19, for which the binding entry was “binds”.

For B20, the binding result is listed as “binds”.

For the molecule B21, the binding entry was “binds”.

B22: the binding result is “binds”.

A further assay addresses fibroblast growth factor 2 (FGF-2) (UniProt P09038). The description is as above.
Consider B23, for which the binding result is given as “binds”.

For B24, the binding result is listed as “binds”.

Turning to B25, the binding result was “binds”.

B26: the binding entry is given as “binds”.

Regarding B27, the binding result is on record as “binds”.

As to B28, the binding entry is “binds”.

Turning to B29, the binding result is on record as “binds”.

As to B30, the binding result is “binds”.

On to B31, for which the binding result is reported as “binds”.

Take B32: the binding result is given as “binds”.

With B33, the binding entry is on record as “binds”.

The next assay concerns the target interleukin-4 (IL-4) (UniProt P05112). Described as above.
On to B34, for which the binding entry is listed as “binds”.

As for B35, the binding result is “binds”.
